PubChem BioAssay AID504808 | Drosophila RNAi Screening Center – 2011
The deposit covers about 21,000 reagents; this is a random part of those that have a named target and a result. In the full data, 18 (0.084%) got an active call. 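Raw counts without plate normalisation, one of two replicates; the ratio scores behind the calls were not deposited.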 Entries without a mark were called inactive. A plus sign joins genes that one reagent is predicted to hit. Reagent sequences are not shown. Not given: the amount of reagent, the time to read-out.

Purpose: 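Fly genes required to hold E2F transcription in check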 (primary screen)
Cell system: Drosophila S2 cells
Reagent: long dsRNA against Drosophila genes
Detection: 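Firefly luciferase driven by E2F sites, normalised to Renilla luciferase on the same minimal promoter, measured by plate reader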
Reading the numbers: E2F firefly: higher = more E2F reporter activity; Renilla normaliser: higher = more normaliser reporter signal
Hit rule: 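a knock-down counted as active when the firefly/Renilla E2F signal rose above 50%, a threshold chosen arbitrarily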

The first 4 records as a preview:
Target gene	amplicon	E2F firefly, rep 1	Renilla normaliser, rep 1
kug	DRSC10911	77650	4082
jdp	DRSC16975	1859	968
kairos	DRSC19972	1.68e5	5488
prg	DRSC03324	1.42e5	4803

Main list, from the start:
Target gene	amplicon	E2F firefly, rep 1	Renilla normaliser, rep 1
kug	DRSC10911	77650	4082
jdp	DRSC16975	1859	968
kairos	DRSC19972	1.68e5	5488
prg	DRSC03324	1.42e5	4803
CG14628	DRSC18626	1.09e5	6291
CG7506	DRSC10860	86227	3308
CG8219	DRSC10971	1.03e5	4225
Amun	DRSC19847	1.19e5	6387
Clp	DRSC00746	1.84e5	5835
MED24	DRSC10944	94928	4984
CG10903	DRSC14281	1.19e5	7346
CG14285	DRSC14766	1.57e5	8670
CG33169	DRSC11853	1.30e5	7189
CG14572	DRSC11733	1.49e5	7474
sturkopf	DRSC08637	74898	3507
SmydA-6	DRSC07341	1.44e5	5218
CG14277	DRSC02380	1.30e5	5217
CG5188	DRSC02826	1.37e5	4979
CG12917	DRSC06231	1.43e5	4699
CG18231	DRSC10307	1.50e5	7516
dgt2	DRSC02548	1.02e5	4175
PQBP1	DRSC14393	63005	2765
pod1	DRSC18362	8176	760
CG5776	DRSC02891	81299	2887
CG11227	DRSC20476	1.38e5	7033
CG8012	DRSC10951	97042	4125
Cpr23B	DRSC00555	1.54e5	5523
prc	DRSC11385	1.10e5	5874
Rbsn-5	DRSC03094	84884	3732
Ctr1B + Poxm	DRSC16245	1.31e5	6655
Taf9	DRSC20326	1.57e5	5902
Ir84a	DRSC12510	1.53e5	6433
MsR2 + CG13802 (retired record)	DRSC08336	1.05e5	4296
MsR2 + CG13802 (retired record)	DRSC08337	1.12e5	4647
apt	DRSC04671	78510	3639
CG11566 (retired record) + stg1	DRSC20473	91792	5185
CG11566 (retired record) + stg1	DRSC20481	1.29e5	5956
CG11566 (retired record) + stg1	DRSC20482	1.45e5	6836
CG11566 (retired record) + stg1	DRSC20483	1.37e5	6388
CG13197	DRSC06322	1.09e5	4469
CG42586 + CG31775	DRSC01413	1.22e5	5729
PLCXD	DRSC02427	1.00e5	4313
CG18542 + CG32939	DRSC15342	62498	3337
rt	DRSC11391	1.13e5	6213
Dh44-R2	DRSC06141	1.02e5	4209
Dh44-R2	DRSC06281	1.01e5	4350
CG4404	DRSC19897	55536	4738
Ccp84Ad	DRSC12589	1.15e5	6121
l(3)73Ah	DRSC11359	1.15e5	7920
Spn75F	DRSC09589	64267	2371
Dnaaf4	DRSC02405	1.51e5	5410
goe	DRSC19345	1.29e5	5713
aft	DRSC07576	69695	3230
CG13247	DRSC11695	1.43e5	5904
seq	DRSC06863	1.06e5	3948
CG5693	DRSC02878	1.09e5	4135
Cyp301a1	DRSC07365	1.07e5	4746
